Source: article PMC10912509
No constants are given. Whether binding was seen depends on the method and setting. Binding seen in cells or lysates may run through a third protein. A yes stands for co-enrichment or nearness to the bait. Other partners may have been found. Tags and fused reporters may be left off the sequences shown.

Chains of the proteins cited; added tags and fusions are not shown.
UniProt O95782: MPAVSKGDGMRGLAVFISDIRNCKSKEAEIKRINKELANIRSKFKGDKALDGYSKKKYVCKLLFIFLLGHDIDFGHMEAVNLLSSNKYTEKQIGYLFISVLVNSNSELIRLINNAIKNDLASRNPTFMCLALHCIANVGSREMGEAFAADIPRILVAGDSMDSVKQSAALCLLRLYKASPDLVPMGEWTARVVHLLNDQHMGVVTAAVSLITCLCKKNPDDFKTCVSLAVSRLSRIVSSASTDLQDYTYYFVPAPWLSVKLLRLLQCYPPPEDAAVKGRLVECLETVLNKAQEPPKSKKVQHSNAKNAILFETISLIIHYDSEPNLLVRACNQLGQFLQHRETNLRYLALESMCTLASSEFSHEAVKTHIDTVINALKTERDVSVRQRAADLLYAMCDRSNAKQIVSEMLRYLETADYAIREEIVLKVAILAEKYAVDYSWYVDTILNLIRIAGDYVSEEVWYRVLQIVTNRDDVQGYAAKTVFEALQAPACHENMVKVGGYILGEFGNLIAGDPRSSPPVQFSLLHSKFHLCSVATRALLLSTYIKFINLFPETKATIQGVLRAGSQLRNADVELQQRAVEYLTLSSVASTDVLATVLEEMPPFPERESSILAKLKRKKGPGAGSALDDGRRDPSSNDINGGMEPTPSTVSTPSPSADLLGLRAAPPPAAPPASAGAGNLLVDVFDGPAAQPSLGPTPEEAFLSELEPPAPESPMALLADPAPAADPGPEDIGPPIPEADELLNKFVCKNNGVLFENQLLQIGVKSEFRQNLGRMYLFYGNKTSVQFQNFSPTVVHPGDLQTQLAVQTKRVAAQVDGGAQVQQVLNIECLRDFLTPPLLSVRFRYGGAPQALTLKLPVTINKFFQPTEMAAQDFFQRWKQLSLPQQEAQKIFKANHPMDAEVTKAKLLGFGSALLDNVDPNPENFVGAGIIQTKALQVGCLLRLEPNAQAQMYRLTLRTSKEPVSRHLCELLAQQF
UniProt Q14258: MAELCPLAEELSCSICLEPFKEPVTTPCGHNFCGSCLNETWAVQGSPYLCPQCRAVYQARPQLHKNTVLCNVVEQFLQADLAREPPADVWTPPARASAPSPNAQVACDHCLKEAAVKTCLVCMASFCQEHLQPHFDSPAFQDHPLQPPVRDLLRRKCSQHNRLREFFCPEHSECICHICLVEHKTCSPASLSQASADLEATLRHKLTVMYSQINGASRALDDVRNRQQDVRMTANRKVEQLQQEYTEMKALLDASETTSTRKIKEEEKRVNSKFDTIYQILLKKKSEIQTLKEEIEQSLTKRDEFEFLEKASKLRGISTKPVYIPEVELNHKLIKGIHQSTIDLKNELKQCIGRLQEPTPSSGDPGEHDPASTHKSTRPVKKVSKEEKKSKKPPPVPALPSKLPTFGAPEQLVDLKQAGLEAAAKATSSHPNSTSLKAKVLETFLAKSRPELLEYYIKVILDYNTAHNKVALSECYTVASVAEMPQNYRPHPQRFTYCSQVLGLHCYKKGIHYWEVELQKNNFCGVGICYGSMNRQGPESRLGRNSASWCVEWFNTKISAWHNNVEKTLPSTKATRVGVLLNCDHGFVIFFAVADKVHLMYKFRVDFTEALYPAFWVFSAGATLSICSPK

Target: T1, Flag-tagged ITPKB (inositol 1,4,5-triphosphate (IP3) kinase B), wild type (UniProt P27987)
T1 sequence: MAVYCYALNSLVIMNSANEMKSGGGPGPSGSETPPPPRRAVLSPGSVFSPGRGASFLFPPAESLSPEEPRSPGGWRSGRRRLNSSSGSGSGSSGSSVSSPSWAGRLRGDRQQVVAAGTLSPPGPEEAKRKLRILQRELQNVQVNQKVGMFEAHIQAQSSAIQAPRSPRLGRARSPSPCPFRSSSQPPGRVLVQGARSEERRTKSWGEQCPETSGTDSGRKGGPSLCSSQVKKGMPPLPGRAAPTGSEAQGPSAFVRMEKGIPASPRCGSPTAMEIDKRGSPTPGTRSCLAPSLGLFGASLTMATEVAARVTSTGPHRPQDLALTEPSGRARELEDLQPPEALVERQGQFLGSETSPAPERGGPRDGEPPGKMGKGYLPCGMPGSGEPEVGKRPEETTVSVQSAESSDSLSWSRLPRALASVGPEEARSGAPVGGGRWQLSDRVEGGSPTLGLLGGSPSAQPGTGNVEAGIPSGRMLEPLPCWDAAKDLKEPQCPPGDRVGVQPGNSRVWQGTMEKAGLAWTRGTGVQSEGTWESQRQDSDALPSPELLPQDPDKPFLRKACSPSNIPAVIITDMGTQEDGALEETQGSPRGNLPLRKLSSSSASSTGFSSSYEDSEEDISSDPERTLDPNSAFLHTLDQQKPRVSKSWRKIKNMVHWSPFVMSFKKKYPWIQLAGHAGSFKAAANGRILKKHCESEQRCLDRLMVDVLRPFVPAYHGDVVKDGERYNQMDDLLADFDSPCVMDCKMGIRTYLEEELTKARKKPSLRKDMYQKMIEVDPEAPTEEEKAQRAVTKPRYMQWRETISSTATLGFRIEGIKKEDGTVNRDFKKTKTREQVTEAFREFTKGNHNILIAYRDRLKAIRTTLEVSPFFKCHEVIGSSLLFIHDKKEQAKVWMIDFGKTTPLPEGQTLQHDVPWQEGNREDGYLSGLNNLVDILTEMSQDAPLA
Test: affinity purification with mass spectrometry; coimmunoprecipitation and mass spectrometry of ITPKB complexes from HEK293T and T98G-R cells overexpressing Flag-tagged ITPKB

Row | Substance | binding
1 | AP2A1 (from UniProt O95782 1-977) | binds
2 | Trim25, endogenous (from UniProt Q14258 1-630) (enzyme) | binds
